Assay results as given in PubChem BioAssay AID493014 (National Center for Advancing Translational Sciences (NCATS), 2011).
Out of some 340,000 compounds screened, about 170 (0.05%) were called active. The shares of active, inactive and inconclusive entries below differ from those in the screen. Calls follow the shape of the dose curve; as a rule, active = well fitted inhibition curve with a large enough effect in the signal ratio, with a control signal flat (not every such curve was filed as active); inconclusive = small, poorly fitted or top-dose-only effect, or effect the other way, or a change in a side signal; inactive = flat fitted curve, though single readings scatter; the % refers to the signal ratio. Potencies beside an inconclusive call are fits to weak or partial responses and may not hold up.

Assay: qHTS Assay to Find Inhibitors of Chronic Active B-Cell Receptor Signaling;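 as to activity change, negative = inhibition: plate controls were basal doxycycline-induced cells for no effect and cells given 10 µM MG132 for full effect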
Conditions: ABC-DLBCL IkBa-CBG/CBR reporter, luminescence ratio (green luciferase fused to IkBa over red control in TMD8 lymphoma cells), 4 h; activity change, negative = inhibition: at 46.1 µM (top of the series)
Summary of the method: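 TMD8 ABC-DLBCL cells carrying doxycycline-inducible green luciferase fused to IkappaBalpha plus unfused red luciferase were exposed to compounds (up to 46 uM) for 4 hrs at 37C. Activity came from the overlap-corrected green/red luminescence ratio.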
Potency is read from the fitted curve at half-maximal effect.

Structure (SMILES)	activity change, negative = inhibition	Potency
CS(=O)(=O)c1ccc(S(=O)CC(=O)OCc2ccccc2)c([N+](=O)[O-])c1 (configuration not stated)	inconclusive: 8.67%	
Cc1ccc(NC(=O)Cn2nc(C(=O)Nc3ccc(C)cc3)ccc2=O)cc1		inconclusive: 0.501 µM [falling, full curve, poor fit]
CC1=C/C(=N\NC(=O)c2ccc(O)cc2)CC1		inconclusive: 4.11 µM [falling, partial curve]
COc1ccc(S(=O)(=O)NCC(c2ccco2)S(=O)(=O)c2ccc(C)cc2)cc1F (configuration not stated)	inconclusive: -3.42%	
C=CCn1c(C)cc(C(=O)Cn2ncc(Cl)c(Cl)c2=O)c1C	inconclusive: 16.7%	
Cn1c(=O)cc(SCC(=O)N2CCCC2)c2ccccc21	inactive	
COc1cccc(/C=C/C(=O)NNC(=O)c2cc(C)oc2C)c1		inconclusive: 20.6 µM [falling, single point]
CC(C)c1ccc(C(N)=S)cc1	inconclusive: 4.78%	
c1ccc(CSc2nnc(Cc3ccccn3)o2)cc1	inconclusive: 1.27%	
C=CCn1c(Oc2ccccc2F)nc2c1c(=O)n(C)c(=O)n2C	inconclusive: 2.43%	
CC(=O)N1CCCc2cc(S(=O)(=O)N(C)Cc3ccccc3)ccc21	inactive	
O=C1CN(c2ccccc2)C(=O)N1	inconclusive: 5.81%	
Cc1ccc(S(=O)(=O)N2CCC(C(=O)Nc3nnc(COc4ccccc4)s3)CC2)cc1	inactive	
COc1ccccc1/C=N/NC(=S)Nc1cccnc1		inconclusive: 7.08 µM [cytotoxic, full curve]
CCOC(=O)C1=C(c2ccccc2)NC(=S)NC1c1ccc(C)c([N+](=O)[O-])c1 (configuration not stated)	inconclusive: -4.44%	
COc1ccc2nc(NC(=O)c3ccccc3F)sc2c1	inconclusive: 338%	
O=C(CN(Cc1ccco1)C(=O)c1ccc(Cl)cc1)Nc1ccc(Cl)c(Cl)c1	inconclusive: -0.201%	
COC(=O)c1c(NC(=O)c2ccco2)sc(C)c1C	inconclusive: -0.773%	
COCCN(C(=O)CCCc1nc2ccccc2s1)c1c(N)n(CC(C)C)c(=O)[nH]c1=O	inconclusive: 5.58%	
CCNC(=O)NC(=O)CSc1nnc(-c2c[nH]c3ccccc23)o1		inconclusive: 22.4 µM [falling, single point]
O=C1CCc2cc(S(=O)(=O)NCCC(=O)NC3CCN(Cc4ccccc4)CC3)ccc2N1	inconclusive: 7.89%	

Structure (SMILES)	activity change, negative = inhibition	Potency
Cc1c(Cl)cccc1NC(=O)CC1Oc2ccccc2NC1=O (configuration not stated)	inconclusive: -11.1%	
CCCCOC(=O)Nc1nc(CC(=O)OCC)cs1	inconclusive: -0.285%	
FC(F)(F)c1cc(C(F)(F)F)c2ccc(N3CCOCC3)nc2n1	inactive	
O=S(=O)(Nc1ccc2c3c(cccc13)CC2)c1ccc(F)cc1	inconclusive: 15.9%	
CCOC(=O)CN1NC2(CCC(C(C)(C)C)CC2)NC1=S (configuration not stated)		inconclusive: 28.2 µM [falling, partial curve, poor fit]
N#Cc1c(N)nc(SCc2ccncc2)c(C#N)c1-c1cccs1	inconclusive: -9.28%	
COc1cc(CO)c(OC)c([N+](=O)[O-])c1	inconclusive: -15.8%	
CC(C)(C)C1CCC(=O)N(CCSc2ccccc2)CC1 (configuration not stated)		inconclusive: 4.47 µM [rising, partial curve]
O=C(O)c1ccc2c(=O)n3c(nc2c1)/C(=C/c1cccc(O)c1)CC3	inactive	
Cc1cc(C)n2nc(CC#N)c(C#N)c2n1		inconclusive: 5.62 µM [cytotoxic, single point]
Cc1ccc(-n2c3c(cc(C(=O)O)c2=O)C(=O)CC(C)(C)C3)cc1	inactive	
Cc1cccc2sc(N(Cc3cccnc3)C(=O)CCc3ccccc3)nc12		inconclusive: 6.31 µM [rising, full curve, poor fit]
O=Cc1ccc(N2CCCC2)c(F)c1	inconclusive: -4.09%	
COc1ccccc1N1CCN(c2nc3c(C)cccn3c(=O)c2C=O)CC1	inconclusive: -1.78%	
CCCCn1c(-c2nn(C)cc2Cl)n[nH]c1=S	inconclusive: 0.163%	
CSc1ccc(C(=O)C2CCCN(C(=O)c3cc4cc(F)ccc4[nH]3)C2)cc1 (configuration not stated)	inconclusive: 20.5%	
Cc1c(NC(=O)/C(C#N)=C/c2ccc(-c3ccc(Cl)c(Cl)c3)o2)c(=O)n(-c2ccccc2)n1C	inactive	
O=C(NCc1cccs1)c1ccc2c(=O)n3nc(Nc4ccccc4)sc3nc2c1		inconclusive: 0.447 µM [falling, full curve, poor fit]
Cc1noc(C)c1COc1ccc(C(=O)N2CCN(S(=O)(=O)c3cccc(F)c3)CC2)cc1	inconclusive: -0.593%	
Cc1ccc2c(c1Br)C(O)(CC(=O)c1ccc(F)cc1)C(=O)N2 (configuration not stated)	inconclusive: -10.1%	
CN(C)c1nc(SCC#N)nc(N2CCOCC2)n1		inconclusive: 12.6 µM [falling, single point]

Given comma-delimited: part of the list above
Structure (SMILES),"activity change, negative = inhibition",Potency
CCOC(=O)CN1NC2(CCC(C(C)(C)C)CC2)NC1=S (configuration not stated),,"inconclusive: 28.2 µM [falling, partial curve, poor fit]"
N#Cc1c(N)nc(SCc2ccncc2)c(C#N)c1-c1cccs1,inconclusive: -9.28%,
COc1cc(CO)c(OC)c([N+](=O)[O-])c1,inconclusive: -15.8%,
CC(C)(C)C1CCC(=O)N(CCSc2ccccc2)CC1 (configuration not stated),,"inconclusive: 4.47 µM [rising, partial curve]"
O=C(O)c1ccc2c(=O)n3c(nc2c1)/C(=C/c1cccc(O)c1)CC3,inactive,
Cc1cc(C)n2nc(CC#N)c(C#N)c2n1,,"inconclusive: 5.62 µM [cytotoxic, single point]"
Cc1ccc(-n2c3c(cc(C(=O)O)c2=O)C(=O)CC(C)(C)C3)cc1,inactive,
Cc1cccc2sc(N(Cc3cccnc3)C(=O)CCc3ccccc3)nc12,,"inconclusive: 6.31 µM [rising, full curve, poor fit]"
O=Cc1ccc(N2CCCC2)c(F)c1,inconclusive: -4.09%,
COc1ccccc1N1CCN(c2nc3c(C)cccn3c(=O)c2C=O)CC1,inconclusive: -1.78%,
CCCCn1c(-c2nn(C)cc2Cl)n[nH]c1=S,inconclusive: 0.163%,
CSc1ccc(C(=O)C2CCCN(C(=O)c3cc4cc(F)ccc4[nH]3)C2)cc1 (configuration not stated),inconclusive: 20.5%,
Cc1c(NC(=O)/C(C#N)=C/c2ccc(-c3ccc(Cl)c(Cl)c3)o2)c(=O)n(-c2ccccc2)n1C,inactive,
O=C(NCc1cccs1)c1ccc2c(=O)n3nc(Nc4ccccc4)sc3nc2c1,,"inconclusive: 0.447 µM [falling, full curve, poor fit]"
Cc1noc(C)c1COc1ccc(C(=O)N2CCN(S(=O)(=O)c3cccc(F)c3)CC2)cc1,inconclusive: -0.593%,

Remaining list, next part

Structure (SMILES)	activity change, negative = inhibition	Potency
COc1ccc(NS(=O)(=O)c2cccc(C(=O)NCC(c3ccco3)N3CCCCC3)c2)cc1 (configuration not stated)	inactive	
O=C1CCC(=O)N1c1cccc(-c2nc3ccccc3o2)c1	inconclusive: -13.5%	
COc1ccc(-c2cn[nH]c2-c2ccc(OC)cc2)cc1	inconclusive: 1.01%	
C/C(=N\NC(=O)c1ccc(Br)cc1)C1C(=O)c2ccccc2C1=O		inconclusive: 0.82 µM [falling, full curve, poor fit]
COc1ccc(Nc2nnc(SCc3cc(=O)n4ccsc4n3)s2)cc1	inactive	
Cc1noc(C)c1CSCC(=O)N(C)CC(=O)Nc1ccc(F)cc1	inactive	
COC(=O)c1ccc(NC(=O)c2ccc3nccnc3c2)cc1	inconclusive: -28.9%	
O=C(N/N=C/c1c(Cl)cccc1Cl)c1ccc(F)cc1	inconclusive: 0.139%	
O=C(NC1CC(=O)N(c2ccc(F)cc2)C1)c1ccc(S(=O)(=O)N2CCCCC2)cc1 (configuration not stated)	inactive	
COc1cccc(NC(=O)N(C2CCCCC2)C(C)c2cccs2)c1 (configuration not stated)	inconclusive: -24.1%	
Cc1cc(C(=O)COc2cccnc2[N+](=O)[O-])c(C)n1-c1ccccc1F	inconclusive: -13.8%	
O=C(COc1cccc2cccnc12)N1CCc2ccccc2C1	inactive	
Clc1ccc(-c2nnc(N3CCOCC3)o2)cc1	inactive	
O=C(NC(NC(=S)Nc1ccccc1)C(Cl)(Cl)Cl)c1cccc(Cl)c1 (configuration not stated)		inconclusive: 17.8 µM [rising, partial curve, poor fit]
CCCCCOc1ccc(Br)cc1/C(C)=N/NC1=NCCN1	inconclusive: -28%	
Cc1cccc(-n2c(SCC(=O)Nc3ncc(Cl)cc3Cl)nc3ccccc32)c1	inconclusive: 5.3%	
COc1ccc(-c2ccc(CCC(=O)O)n2CC(C)C)cc1		inconclusive: 0.103 µM [rising, full curve, poor fit]
Cc1ccc(-n2c(SCC(=O)N/N=C/C=C/c3ccccc3[N+](=O)[O-])nc3ccccc3c2=O)cc1		inconclusive: 8.2 µM [falling, partial curve]
O=S(=O)(c1ccc(F)c(F)c1F)N1CCN(c2ncnc3sccc23)CC1	inactive	
COC(=O)c1ccc(N2CCCCC2)c(NS(=O)(=O)c2ccc(C)cc2)c1	inconclusive: 6.74%	
COc1ccc(C2c3c(-c4ccccc4O)n[nH]c3C(=O)N2CCc2ccc(OC)c(OC)c2)cc1 (configuration not stated)	inconclusive: 8.46%	

Structure (SMILES)	activity change, negative = inhibition	Potency
O=C(Cn1cc([N+](=O)[O-])nc1[N+](=O)[O-])N1CCN(c2ccccc2)CC1		inconclusive: 17.8 µM [falling, partial curve]
Cc1cnc(NC(=O)CCNC(=O)c2ccccc2Cl)s1	inactive	
N#CCC(=O)N/N=C/c1c2ccccc2cc2ccccc12	inconclusive: -0.478%	
Cc1ccc2[nH]c(C(=O)N/N=C/c3ccccc3C(=O)O)c(-c3ccccc3)c2c1		inconclusive: 3.55 µM [falling, full curve, poor fit]
Cc1ccc2nsnc2c1S(=O)(=O)N(Cc1ccco1)Cc1cc2cccc(C)c2[nH]c1=O	inconclusive: 3.82%	
O=C(c1[nH]ncc1-c1ccccc1)C1CO1 (configuration not stated)	inconclusive: -18.1%	
Cc1ccc(NC(=O)COc2ncnc3ccccc23)cc1S(=O)(=O)N1CCOCC1	inconclusive: -0.288%	
COC(=O)[C@H](CCSC)NC(=O)Cn1ccc(N)nc1=O	inactive	
O=C(OCc1nnc(-c2ccccc2)o1)c1ccccc1		inconclusive: 22.4 µM [falling, single point]
COc1cc(OC)c(-c2nc(-c3ccncc3)no2)cc1OC	inactive	
Nc1cccnc1Sc1cc(Cl)cc(Cl)c1	inconclusive: 17.7%	
O=C(COC(=O)Cn1cc(C(F)(F)F)ccc1=O)Nc1ccccc1	inconclusive: 14.6%	
Cc1cccc(N/N=C/c2ccc(C)s2)c1	inconclusive: 4.59%	
COc1ccc2nc(/N=C/c3cccc(OC)c3O)sc2c1	inactive	
O=C(COc1ccc2c(c1)OCO2)NC12CC3CC(CC(C3)C1)C2		inconclusive: 32.6 µM [rising, partial curve, poor fit]
Cc1cc(C(=O)NCc2cccs2)c(C)o1	inconclusive: -14.2%	
C/C(=N\Nc1nccnc1Cl)c1ccc(Cl)c(Cl)c1	inconclusive: -1.22%	
COc1ccc2[nH]c3c(C)c4ccncc4c(C)c3c2c1		inconclusive: 39.8 µM [rising, partial curve, poor fit]
O=[N+]([O-])c1cccnc1N1CCC(c2cc(-c3ccc(Cl)cc3)n[nH]2)CC1		inconclusive: 2.06 µM [rising, partial curve, poor fit]
